These are yes or no findings as the source states them, for the method shown. Some results given as binding are weak or reduced against the parent protein; the word gives no strength.
Experiments:
[1] = target: wild type human EGFR on cells (A431, NHEK, SCC-15, H292) (human) (UniProt P00533); test: FACS on normal human epidermal keratinocytes (NHEK)
[2] = target: EGFRvIII on U87MG cells (human) (UniProt P00533); test: competition FACS on U87MG cells expressing EGFRvIII, competitor FITC-labelled Ab1
[3] = target: wild type human EGFR on cells (A431, NHEK, SCC-15, H292) (human) (UniProt P00533); test: summing-up sentence of the example; binding compared with Ab1, method not given
[4] = target: EGFRvIII on U87MG cells (human) (UniProt P00533); test: competition FACS on U87MG de2-7 cells expressing EGFRvIII; competitor Ab1-FITC at 100 nM
[5] = target: wild type human EGFR on cells (A431, NHEK, SCC-15, H292) (human) (UniProt P00533); test: FACS binding to normal human epidermal keratinocytes (NHEK), AlexaFluor 488 secondary antibody

binding [1]: binds
binding [2]: binds
binding [3]: binds
binding [4]: binds
binding [5]: binds
B1: Antibody P (AbP) (antibody, V domains shown)
VH: EVQLQESGPGLVKPSQTLSLTCTVSGYSISHDFAWNWIRQPPGKGLEWMGYISYSGNTRYQPSLKSRITISRDTSKNQFFLKLNSVTAADTATYYCVTASWGLPWWGQGTLVTVSS
VL: DIQMTQSPSSMSVSVGDRVTITCHSSQDINMNVGWLQQKPGKSFKGLIYHGAILDDGVPSRFSGSGSGTDYTLTISSLQPEDFATYYCVQYAEFPWTFGGGTKLEIK
notes: Full length IgG1
